In PubChem BioAssay AID493014 (National Center for Advancing Translational Sciences (NCATS), 2011) one finds AC50 data, which are given here for 64 compounds.

This is one part of the list. The main result of the screen is listed elsewhere. These columns were measured beside it and carry no call. The list favours compounds with an active or inconclusive main result. Words in brackets tell the shape of the fitted curve; partial curves, single points and poor fits give uncertain potencies.

The nature of the test: qHTS Assay to Find Inhibitors of Chronic Active B-Cell Receptor Signaling. The conditions noted are these: ABC-DLBCL IkBa-CBG/CBR reporter, luminescence ratio (green luciferase fused to IkBa over red control in TMD8 lymphoma cells), 4 h. The gist of the method:
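Concentration-response series (up to 46 uM) were applied to TMD8 dual-reporter cells for 4 h at 37C with doxycycline. Green/red ratio, after filter-overlap correction, defined %Activity; red signal alone was normalised to basal cells and zero luminescence.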

Where [1] appears, read: measured here: CBR red luminescence, cell number.
Setting [2] is: measured here: IkBa-CBG green luminescence.

One may read the AC50 as the concentration at which the activity in the assay is half-maximal. Regarding `C=CC[C@H](CC(=O)N(CCO)Cc1ccccc1)C(=O)NC[C@@H](OC(=O)[C@@H](CC=C)Cc1ccc(F)cc1)c1ccccc1`, the AC50 under setting [1] is 8.2 µM [falling, partial curve].

As for `COc1ccc(/C(C)=N/Nc2ccc(C(=O)O)cc2)cc1OC`, the AC50 is, setting by setting: under setting [1], 0.0461 µM [falling, full curve]; under setting [2], 18.4 µM [falling, partial curve, poor fit]. For the compound `CCC1(CC)Cc2ccccc2-c2nc(-c3ccccc3)oc(=O)c21`, under setting [1], the AC50 is 5.8 µM [falling, full curve]. Turning to `COc1ccccc1N1Cc2ccccc2C1`, under setting [1], the AC50 is 35.5 µM [falling, single point]. The same measure, in the same setting: with `CC1CN(c2nc(Nc3ccccc3)nc(N)c2[N+](=O)[O-])CC(C)O1` (centres undefined) the figure was 14.1 µM [falling, partial curve, poor fit]; with `CCN(CC)CCn1c(NC(=O)c2ccccc2O)nc2ccccc21`, 35.5 µM [falling, single point]. Regarding `Nc1ccc(-c2ncc(-c3ccccc3)o2)cc1`, under setting [1], the AC50 is 0.708 µM [rising, partial curve, poor fit]. Still for that read-out and setting: with `NNc1nc2c(F)cc(F)cc2s1` the figure was 29.1 µM [falling, single point]; with `Cc1cc(SCc2ccc(Br)cc2)nc(=O)[nH]1`, 20 µM [rising, single point]. As to `Cc1cc2c(cc1C)NC(c1ccccn1)C1=C(CC(C)(C)CC1=O)N2` (centres undefined), the AC50 reads like this: under setting [1], 25.9 µM [rising, single point]; under setting [2], 0.92 µM [rising, full curve, poor fit]. Turning to `COc1ccc(-c2cn3cccc(C)c3n2)cc1F`, the AC50 under setting [1] is 1.58 µM [rising, partial curve, poor fit]. On the same count and under the same terms, with `Cc1sc(NC(=O)CN2CCN(c3ccccn3)CC2)c(C#N)c1C` the figure was 0.13 µM [falling, full curve, poor fit]; with `COc1cc(CN2CCN(S(=O)(=O)c3ccc(NC(C)=O)cc3)CC2)cc(OC)c1OC`, 20 µM [rising, partial curve, poor fit]. As to `CCOCCOC(=O)c1ccc(NC(=O)c2cc(OC)c(OC)c(OC)c2Br)cc1`, the AC50 under setting [1] is 14.6 µM [rising, partial curve]. On to `O=C(Cc1ccc([N+](=O)[O-])cc1)Nc1ccc2c(c1)C(=O)NC2=O`, for which the AC50 under setting [1] was 1.12 µM [falling, partial curve]. The same measure, in the same setting: with `CC(CCn1cccn1)NC(=O)c1cc(COc2ccc(F)cc2F)on1` (centres undefined) the figure was 15.8 µM [rising, single point]; with `Cc1cc2nc(-c3cccnc3SCC(=O)NCc3ccco3)[nH]c2cc1C`, 7.94 µM [falling, partial curve, poor fit].

As for `O=C(COC(=O)c1ccccc1NC(=O)c1ccco1)Nc1ccc2c(c1)OCO2`, under setting [1], the AC50 was 5.62 µM [rising, single point].

In the case of `O=[N+]([O-])c1nn(-c2ccc3c(c2)OCCO3)n(O)c1=Nc1ccccc1`, the AC50 under setting [1] is 16.4 µM [falling, partial curve]. Still for that read-out and setting: with `O=c1cc(-c2ccccc2)cc(-c2ccccc2)n1O` the figure was 3.66 µM [rising, full curve, poor fit]. `CC(=O)c1ccc(OCCn2cnc3ccccc32)cc1`: the concentration at half-maximal activity (AC50) is, setting by setting: under setting [1], 5.8 µM [rising, partial curve, poor fit]; under setting [2], 32.6 µM [falling, partial curve, poor fit].

Turning to `C(=N\Nc1nc2ccccc2s1)/c1cccs1`, the AC50 under setting [1] was 11.2 µM [falling, single point]. Still for that read-out and setting: with `CN1CCN(c2ccc(C(CC(N)=O)NC(=O)Cc3ccc(Br)cc3)cc2[N+](=O)[O-])CC1` (centres undefined) the figure was 35.5 µM [rising, single point]. The same measure, in the same setting: the result for `COCCCN1CC(=O)N2C(c3ccc(OC)c(OC)c3)c3[nH]c4ccccc4c3C[C@H]2C1=O` (some centres undefined) reads 10 µM [rising, partial curve, poor fit].

In the case of `CC1(C(=O)NCc2ccc(F)cc2)Oc2ccccc2NC1=O` (centres undefined), the AC50 under setting [1] is 0.631 µM [falling, partial curve, poor fit]. Turning to `CC1CCCC(NC(=O)C2COc3ccccc3O2)C1C` (centres undefined), under setting [1], the AC50 was 20.6 µM [rising, partial curve].

As to `COc1ccc([C@@H]2[C@@H]3C(=O)N(C(C)(C)C)C(=O)[C@@H]3[C@]3(C)C(=O)N(c4cccc(Br)c4)C(=O)N23)cc1`, the AC50 under setting [1] is 22.4 µM [falling, single point].

As for `O=C(CN1CCN(Cc2ccccc2)CC1)Nc1ccc(Cl)cn1`, the half-maximal activity concentration (AC50) under setting [1] is 1.16 µM [falling, partial curve, poor fit]. With `Cn1cnc([N+](=O)[O-])c1Nc1ccc(O)cc1`, the half-maximal activity concentration (AC50) under setting [1] is 35.5 µM [falling, single point]. For `Cc1ccc(C(=O)NCN2CCN(c3ccccc3)CC2)cc1`, under setting [1], the AC50 was 29.1 µM [rising, single point]. The same measure, in the same setting: the result for `Cc1cc(=O)oc2cc(NC(=O)C3COc4ccccc4O3)ccc12` (centres undefined) reads 23.1 µM [rising, partial curve, poor fit]; that for `CC(=O)c1ccc(N2CCN(c3ncnc4c3c(-c3ccccc3)cn4-c3ccc(Cl)cc3)CC2)cc1`, 35.5 µM [rising, single point]. Still for that read-out and setting: with `O=C(CSc1ccccc1C(=O)O)NC1CCCCCCC1` the figure was 18.4 µM [rising, partial curve, poor fit]; with `O=C(NC1CCCCCC1)c1ccco1`, 11.2 µM [falling, partial curve]; with `CCOCCn1c(-c2ccccc2)nc2ccccc21`, 35.5 µM [falling, single point]. On the same count and under the same terms, the result for `COCCNC(=O)c1ccc(C(=O)NCCOC)s1` reads 29.1 µM [rising, single point]; that for `CN(C)c1ccc(/C=C/C(=O)c2c(O)c3ccccc3oc2=O)cc1`, 35.5 µM [falling, single point].

Take `CCOc1ccc(S(=O)(=O)N2c3ccccc3CC2C)cc1` (centres undefined): the AC50 is 11.6 µM [rising, partial curve, poor fit] under setting [1] and 14.6 µM [falling, partial curve] under setting [2]. Consider `Cc1ccc(-c2nnc(SCC(=O)Nc3ccccc3F)o2)cc1`, for which the AC50 under setting [1] was 4.47 µM [falling, partial curve].

Regarding `CCOC(=O)Cc1csc(NC(=S)NC(=O)CC(C)C)n1`, under setting [1], the concentration at half-maximal activity (AC50) was 14.6 µM [falling, single point].

As to `Cn1nnnc1Sc1ncnc2scc(-c3ccc(C(F)(F)F)cc3)c12`, the concentration at half-maximal activity (AC50) is 1.46 µM [falling, full curve] under setting [1] and 5.17 µM [rising, partial curve, poor fit] under setting [2]. As for `CCOc1ccc(/C=C(\C#N)C(=O)NCC2CCCO2)cc1OCC` (centres undefined), the AC50 under setting [1] was 29.1 µM [falling, single point]. The same measure, in the same setting: with `CCc1c(C(=O)NC2CCCCC2)[nH]c(C)c1C(C)=O` the figure was 2.82 µM [rising, partial curve, poor fit]; with `CCC(C)NC(=O)/C=C/c1cccs1` (centres undefined), 29.1 µM [falling, single point]; with `O=C(O)CCC(=O)Nc1ccccc1C(=O)NCc1ccccc1`, 29.1 µM [rising, single point]. Same read-out and setting: with `C=CC[C@H](CC(=O)N(CCO)Cc1ccccc1)C(=O)N[C@H](COC(=O)[C@H](CC=C)CC(=O)OC(C)(C)C)Cc1c[nH]c2ccccc12` the figure was 23.1 µM [falling, single point]. On the same count and under the same terms, with `Cc1ccc(C2C(C#N)=C(N)Oc3n[nH]c(C)c32)cc1` (centres undefined) the figure was 31.6 µM [falling, single point]; with `O=C(Nc1cccc2nsnc12)c1ccc(F)cc1`, 1.46 µM [falling, partial curve, poor fit]. Turning to `COc1ccccc1-c1cc(C(=O)Nc2c(F)cc(F)cc2Br)no1`, the AC50 under setting [1] is 10 µM [falling, partial curve, poor fit]. Still for that read-out and setting: with `Cc1ccccc1NC(=O)CSC1=NCCN1` the figure was 29.1 µM [falling, single point]; with `OCC1CCCCN1CC(O)COC(c1ccc(F)cc1)c1ccc(F)cc1` (centres undefined), 17.8 µM [falling, single point]; with `Brc1ccc(-c2cnnc(N3CCCC3)n2)cc1`, 7.08 µM [rising, full curve]. Still for that read-out and setting: with `COc1ccc(CCN(C)C(=O)Cc2ccc(-c3ccccc3)cc2)cc1OC` the figure was 0.447 µM [rising, full curve, poor fit]; with `Cc1cc(=O)[nH]c(Nc2cccc(F)c2)n1`, 25.1 µM [rising, single point]; with `COC(=O)C(C)N1C(=O)S/C(=C\c2ccc(-c3ccc(C(=O)O)cc3C)o2)C1=O` (centres undefined), 5.62 µM [rising, single point]. Same read-out and setting: with `CC(=O)Nc1ccc(S(=O)(=O)NCCC(=O)NCCOc2ccccc2)cc1` the figure was 23.1 µM [rising, single point]; with `O=C(ONc1ccc(N=NC(=O)c2ccccc2O)cc1)c1ccccc1`, 0.206 µM [falling, full curve]; with `CCOC(=O)c1nn(-c2cccc(OC)c2)c2nc(Nc3ccccc3)cc(=O)n12`, 25.9 µM [falling, single point]. As to `O=C(NCc1cccnc1)c1ccc(NC(=O)c2cccc([N+](=O)[O-])c2)cc1`, the AC50 under setting [1] was 3.55 µM [rising, single point]. In the case of `COc1ccc(OC)c(NC(=O)CSc2ccc3ccccc3c2)c1`, under setting [1], the AC50 is 12.6 µM [falling, single point]. Consider `Cc1cccc(OCCNc2nc3c(c(=O)n(C)c(=O)n3C)n2C)c1`, for which, under setting [1], the AC50 was 0.0891 µM [falling, full curve, poor fit]. In the case of `O=C(NC(=S)Nc1ccccc1N1CCOCC1)c1ccco1`, the AC50 under setting [1] is 0.58 µM [rising, full curve, poor fit]. On the same count and under the same terms, the result for `CCOc1ccc(-c2cc(C)n3nc(C(N)=O)cc3n2)cc1` reads 6.51 µM [rising, single point]; that for `Oc1ccc(-c2csc(-c3c[nH]c4ccccc34)n2)c(O)c1`, 23.1 µM [falling, single point].
